# Experimental data: the supplement of paper PMC3334620
# The full ranking holds about 33,000 sequences; the median of “E-score (-0.5 to 0.5)” is about -0.016, and the highest 2% start at about 0.3. The list shows a part of the results.
# Target: T1, Yer184c (UniProt P39961)
# T1 sequence: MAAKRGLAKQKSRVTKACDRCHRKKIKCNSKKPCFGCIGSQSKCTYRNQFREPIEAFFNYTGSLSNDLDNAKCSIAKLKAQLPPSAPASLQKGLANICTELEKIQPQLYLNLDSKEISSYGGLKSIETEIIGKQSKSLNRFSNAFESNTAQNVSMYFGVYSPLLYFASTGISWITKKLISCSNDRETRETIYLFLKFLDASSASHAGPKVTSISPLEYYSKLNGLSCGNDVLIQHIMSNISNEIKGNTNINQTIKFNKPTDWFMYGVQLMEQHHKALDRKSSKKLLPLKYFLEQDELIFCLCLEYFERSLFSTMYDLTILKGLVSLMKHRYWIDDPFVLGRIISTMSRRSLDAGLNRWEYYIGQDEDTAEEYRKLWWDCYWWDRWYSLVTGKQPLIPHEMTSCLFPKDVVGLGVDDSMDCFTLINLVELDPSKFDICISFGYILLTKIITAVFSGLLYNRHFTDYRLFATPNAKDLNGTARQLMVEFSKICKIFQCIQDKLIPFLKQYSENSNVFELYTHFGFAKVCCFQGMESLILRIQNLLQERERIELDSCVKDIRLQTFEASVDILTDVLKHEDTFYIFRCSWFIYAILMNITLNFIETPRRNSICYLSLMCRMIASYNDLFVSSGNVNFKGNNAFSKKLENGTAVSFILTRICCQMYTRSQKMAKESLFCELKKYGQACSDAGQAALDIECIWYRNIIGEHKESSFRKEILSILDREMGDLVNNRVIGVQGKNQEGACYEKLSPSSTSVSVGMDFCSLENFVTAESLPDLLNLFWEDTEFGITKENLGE
# Assay: PBM E-score (8-mer binding enrichment) (E-score (-0.5 to 0.5)); higher = stronger / more preferred TF binding
# Details: protein concentration: 100 nM; construct: GST-full length
# Procedure, shortened: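 Yeast transcription factors carrying a GST tag, as full-length proteins or DNA-binding domains, were produced by PURExpress in vitro transcription/translation. About 100-200 nM protein was applied to universal all-10-mer Agilent arrays, double-stranded by primer extension on fresh or once-stripped slides. Bound protein was detected with fluorescent anti-GST, and scans were normalised with masliner. The Universal PBM Analysis Suite gave each ungapped eight-base word, pooled with its reverse complement, an E-score, a modified Wilcoxon-Mann-Whitney statistic.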
row,Sequence,PBM E-score
1,ATGCCCCC,-0.376
2,GCATCTTA,-0.0252
3,ACCCTTTA,-0.142
4,CAATATCG,0.0115
5,ACGGCAAA,0.211
6,AGCCCCCC,-0.403
7,GCTTAGGA,-0.113
8,ATTATAAG,0.135
9,CCATTACA,0.107
10,CGGAGCCA,0.0508
11,GAGGGCAC,-0.271
12,CCAATTAC,-0.0446
13,GACCACAA,-0.032
14,GTCGCTGA,0.015
15,AATGGTAG,-0.00899
16,GTACTAAC,0.0717
17,CATCAAGG,-0.171
18,ACATACAG,-0.0958
19,GAGACTAC,-0.124
20,AAGACTGA,-0.0764
21,CCGAAAAC,0.243
22,ACCTACAG,-0.0545
23,CTCCGTGA,0.208
24,ATTTGTGC,0.0351
25,CCACCTGG,-0.342

row,Sequence,PBM E-score
1,ATGTTTCG,0.173
2,CGTGGTAA,-0.146
3,ATCCACCG,0.136
4,CCCTTGAA,-0.0291
5,ACCGCTAT,0.0175
6,TAAGGAGA,-0.0969
7,ACAATTAC,0.045
8,TCTAAGAA,0.252
9,ACTCGTAG,-0.126
10,AGACCGCG,0.11
11,AACCCCTA,-0.319
12,GCCAGCGC,-0.129
13,AGAGATAG,0.133
14,GCCGGGCA,0.275
15,ATACTTGA,-0.234
16,ACTTTGGG,-0.109
17,AAGGTACG,-0.127
18,GTGAATGA,0.0235
19,CAGACTGC,-0.249
20,AGAGCCTG,-0.167
21,GCAATGCA,-0.168
22,ACTGGTTG,0.0412
23,GAAAATGC,0.114
24,AGTCAGAC,-0.0721
25,ATCAACGG,0.24

row,Sequence,PBM E-score
1,CCTATCAG,-0.233
2,CAGATACC,-0.2
3,AGCCGATC,0.169
4,AATGAATG,0.0587
5,AGACTCAA,-0.0139
6,CTAAAACA,0.0593
7,CCTCGGTC,-0.0163
8,CTTAGAAC,0.107
9,CATTAGAG,-0.165
10,CATCCGGA,0.375
11,ACCCACCA,-0.19
12,ATGTCGAA,0.0448
13,GGGGCGGA,0.0132
14,TACACTCA,0.0322
15,AATTAAAA,0.202
16,CATACACA,-0.147
17,ATTCCCGA,0.162
18,ACGTTTAC,-0.0732
19,TGTTTTAA,0.327
20,CGAATGGA,-0.0229
21,GGTTCTAA,0.0214
22,CATTACAC,-0.105
23,CGATATGC,0.0158
24,CCTCTTTC,-0.0159
25,GTCCACCA,-0.171

row,Sequence,PBM E-score
1,CAGTTTGG,-0.0756
2,GCGTGAGC,0.104
3,AGTAGTCC,-0.0872
4,AATTCTTC,0.157
5,CTCTAGTA,-0.00732
6,ACCACGAT,-0.0131
7,GCTCGTGA,-0.201
8,CTCTAACA,0.0218
9,AAGTGGCG,-0.0663
10,CATTCTGG,-0.113
11,CTGAAGGA,-0.0811
12,ATTAGCAA,0.223
13,ACCGCCGC,0.175
14,AAAGGTTA,-0.0402
15,ACCGCGTC,0.00355
16,TATCGTAA,0.072
17,AAAAGCAG,-0.144
18,GGTGATAC,-0.11
19,GCATGGCA,0.0641
20,CACCGCAC,-0.179
21,GCGAAACC,0.0965
22,ACGGGTAA,0.00866
23,CAGCTTGG,0.0813
24,AGGCCCAT,-0.226
25,GAGGCCCC,-0.213

# As entered above:
# For PBM E-score, GCTCGTGA is listed with -0.201
# For PBM E-score, ATTATAAG is listed with 0.135
# For PBM E-score, TAAGGAGA is listed with -0.0969
# For PBM E-score, CCATTACA is listed with 0.107
# For PBM E-score, CAATATCG is listed with 0.0115
# For PBM E-score, AGAGATAG is listed with 0.133

# Going on with the list.

row,Sequence,PBM E-score
1,CTAACCTC,-0.0675
2,GCGCCCAA,0.00965
3,TCTATAGA,-0.137
4,AAAGGAAC,0.0885
5,CCGAGAGC,-0.00325
6,AGTCTCAC,-0.0985
7,CATGAACG,-0.155
8,GGGGGCGA,-0.264
9,CTGCGTAC,-0.166
10,AATCGATT,0.0566
11,CAGCCACA,-0.0284
12,CCCAAGCC,-0.0587
13,CTGGCACC,-0.228
14,CAACGGTA,-0.0364
15,ATAAGGAC,0.171
16,ACACGTGC,-0.104
17,ACGGGAGC,-0.0391
18,CACAGCAG,-0.114
19,CCAGATGA,-0.0503
20,TAGGTCCA,-0.0628
21,ATTATCAC,0.145
22,TATCTTAA,0.152
23,AATACGTA,0.032
24,GGTGTTAA,0.0806
25,GCCGGTCA,0.209

row,Sequence,PBM E-score
1,ACCATTGC,-0.0741
2,GCGAAACA,0.0488
3,CGAGTTAC,0.14
4,CTCACGAG,-0.175
5,CTCAATTC,0.109
6,AGAGGTTC,-0.0469
7,ATCATGCA,-0.208
8,GTGTGTAA,-0.0604
9,ACGATCGT,0.059
10,AGAACCAC,-0.135
11,GGCCTGTA,-0.208
12,CCTCTTGA,-0.172
13,GTGGGGAA,0.0128
14,AAGGCCAT,-0.2
15,CTGCGCAC,-0.081
16,GATCACAA,0.114
17,ATATACAA,0.219
18,TATCAAAA,0.152
19,CTCGTCAC,0.172
20,ACTACATC,-0.0349
21,CAACTTTA,0.126
22,GAAACGGC,0.131
23,CCAAGCAC,-0.204
24,GCCCGAGA,0.24
25,GGACGAAC,0.254

row,Sequence,PBM E-score
1,AAATAATG,0.164
2,CCGAATAC,0.293
3,GCTAAGCA,-0.0771
4,CGTTGTAA,-0.0356
5,GTAAGATA,0.175
6,ACCCTGGC,-0.231
7,AACGTAGT,-0.00554
8,ATATGGTA,0.00546
9,CACATTGA,0.0556
10,GGCTCATA,-0.0301
11,CATTCCGA,0.278
12,CTGATAGC,-0.0696
13,GGGGCCCA,-0.29
14,CAAATCAG,0.0212
15,TACGACGA,-0.0411
16,ACCCCAAA,-0.136
17,AGCACCTC,-0.065
18,CCTAAATA,-0.0799
19,AACAAGGG,-0.109
20,ATATTTCA,0.201
21,AAGATCTG,0.0471
22,CTCCCAAA,0.0357

# 3 records drawn at random from the list so far, as already listed:
row,Sequence,PBM E-score
10,GGCTCATA,-0.0301
15,TACGACGA,-0.0411
1,AAATAATG,0.164
